Some of the results follow. Hit calls seldom repeat between salt and free forms of one compound.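 Kinases were expressed as nanoluciferase fusions in K562 cells and luminescence was read every 4 h between 2 and 18 h as percent of control, DMSO set to 100% and a positive control to 0%. A time point counts as decreased when the signal drops significantly (2 sigma). The hit call is the authors' own, does not follow from the count of time points alone, and its rule is not shown.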
Tests used:
Conditions in all cases: K562; 2-18 h
STK38 = STK38 (UniProt Q15208); assay: kinase-Nluc reporter destabilization hit call (1 = scored as downregulated) (binary); higher = compound decreases kinase abundance
SYK = SYK (UniProt P43405); assay: as above
TEC = TEC (UniProt P42680); assay: as above
TYK2 = TYK2 (UniProt P29597); assay: as above
ULK3 = ULK3 (UniProt Q6PHR2); assay: as above
YES1 = YES1 (UniProt P07947); assay: as above
ZAK = ZAK (UniProt Q9NYL2); assay: as above
ZAP70 = ZAP70 (UniProt P43403); assay: as above
ABL1 = ABL1 (UniProt P00519); assay: number of time points (of 5) at which kinase-Nluc abundance scored as decreased, DMSO-normalised (count); higher = more persistent destabilization
AKT1 = AKT1 (UniProt P31749); assay: as above
ALK = ALK (UniProt Q9UM73); assay: as above
ARAF = ARAF (UniProt P10398); assay: as above
AURKA = AURKA (UniProt O14965); assay: as above
AURKB = AURKB (UniProt Q96GD4); assay: as above
AURKC = AURKC (UniProt Q9UQB9); assay: as above
BLK = BLK (UniProt P51451); assay: as above
BMX = BMX (UniProt P51813); assay: as above
BRAF = BRAF (UniProt P15056); assay: as above
BRAF_V600E = assay: as above
BTK = BTK (UniProt Q06187); assay: as above

Amino acid sequences for entries named in this document (tags omitted). A change or cut given only in a name is not applied to a line headed by its entry.
UniProt Q15208: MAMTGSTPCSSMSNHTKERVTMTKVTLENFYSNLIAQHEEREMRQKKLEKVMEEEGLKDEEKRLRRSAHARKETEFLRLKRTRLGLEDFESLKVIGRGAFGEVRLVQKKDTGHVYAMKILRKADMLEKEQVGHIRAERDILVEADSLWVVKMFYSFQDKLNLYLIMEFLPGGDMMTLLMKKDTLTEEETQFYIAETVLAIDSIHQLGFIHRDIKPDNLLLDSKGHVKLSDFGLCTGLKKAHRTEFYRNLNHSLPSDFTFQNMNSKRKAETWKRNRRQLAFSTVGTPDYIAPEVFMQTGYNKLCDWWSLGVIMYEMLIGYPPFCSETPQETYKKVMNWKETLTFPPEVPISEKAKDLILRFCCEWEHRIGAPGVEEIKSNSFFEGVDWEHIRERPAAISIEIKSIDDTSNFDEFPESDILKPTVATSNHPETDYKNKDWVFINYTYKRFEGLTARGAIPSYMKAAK
UniProt P42680: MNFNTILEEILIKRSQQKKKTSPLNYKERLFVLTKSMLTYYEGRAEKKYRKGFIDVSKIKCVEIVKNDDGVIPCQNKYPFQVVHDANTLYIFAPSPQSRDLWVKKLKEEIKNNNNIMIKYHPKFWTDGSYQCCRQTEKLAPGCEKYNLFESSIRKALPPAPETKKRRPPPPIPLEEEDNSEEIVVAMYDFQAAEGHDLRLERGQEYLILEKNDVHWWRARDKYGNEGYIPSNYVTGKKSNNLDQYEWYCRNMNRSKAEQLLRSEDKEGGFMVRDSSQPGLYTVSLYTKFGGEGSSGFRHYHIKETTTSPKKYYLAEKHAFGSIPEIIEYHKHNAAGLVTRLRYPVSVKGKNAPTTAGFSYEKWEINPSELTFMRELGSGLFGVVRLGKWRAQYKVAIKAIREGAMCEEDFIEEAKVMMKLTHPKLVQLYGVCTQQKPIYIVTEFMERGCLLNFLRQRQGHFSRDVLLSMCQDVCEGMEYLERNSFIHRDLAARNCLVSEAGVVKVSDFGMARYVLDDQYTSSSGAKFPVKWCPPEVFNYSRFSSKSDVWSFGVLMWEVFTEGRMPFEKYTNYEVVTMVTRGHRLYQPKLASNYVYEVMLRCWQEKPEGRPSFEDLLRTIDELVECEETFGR
UniProt P29597: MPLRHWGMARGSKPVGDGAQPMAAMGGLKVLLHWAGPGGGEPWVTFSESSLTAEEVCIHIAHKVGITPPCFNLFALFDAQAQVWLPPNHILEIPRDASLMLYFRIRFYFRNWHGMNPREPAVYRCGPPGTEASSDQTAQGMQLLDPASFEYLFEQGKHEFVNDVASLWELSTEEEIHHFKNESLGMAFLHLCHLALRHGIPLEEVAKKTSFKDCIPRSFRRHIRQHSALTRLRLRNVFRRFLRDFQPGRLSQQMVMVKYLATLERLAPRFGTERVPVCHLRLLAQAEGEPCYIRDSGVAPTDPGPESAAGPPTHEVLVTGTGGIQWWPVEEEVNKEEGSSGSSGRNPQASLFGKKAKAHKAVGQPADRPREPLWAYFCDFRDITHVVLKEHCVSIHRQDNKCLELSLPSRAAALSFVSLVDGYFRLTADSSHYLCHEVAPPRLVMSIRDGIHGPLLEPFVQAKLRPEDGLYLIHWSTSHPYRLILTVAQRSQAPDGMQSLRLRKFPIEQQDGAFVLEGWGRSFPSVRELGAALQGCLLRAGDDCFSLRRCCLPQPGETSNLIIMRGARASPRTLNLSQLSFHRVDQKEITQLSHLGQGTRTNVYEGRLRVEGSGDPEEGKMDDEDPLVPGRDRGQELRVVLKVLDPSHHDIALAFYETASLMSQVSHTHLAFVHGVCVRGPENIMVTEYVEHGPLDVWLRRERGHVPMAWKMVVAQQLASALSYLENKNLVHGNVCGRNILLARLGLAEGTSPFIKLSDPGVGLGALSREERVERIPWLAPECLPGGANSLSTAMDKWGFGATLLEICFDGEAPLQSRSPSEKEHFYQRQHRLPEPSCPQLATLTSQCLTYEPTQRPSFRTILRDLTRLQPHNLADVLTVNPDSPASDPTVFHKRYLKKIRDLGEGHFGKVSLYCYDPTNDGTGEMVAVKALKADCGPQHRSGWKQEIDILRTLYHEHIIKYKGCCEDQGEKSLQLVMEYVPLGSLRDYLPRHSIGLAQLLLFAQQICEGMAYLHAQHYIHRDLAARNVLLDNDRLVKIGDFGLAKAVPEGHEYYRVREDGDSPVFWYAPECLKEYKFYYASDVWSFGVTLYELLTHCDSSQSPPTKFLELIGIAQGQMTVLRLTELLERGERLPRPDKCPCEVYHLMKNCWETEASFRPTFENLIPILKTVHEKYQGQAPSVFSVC
UniProt Q6PHR2: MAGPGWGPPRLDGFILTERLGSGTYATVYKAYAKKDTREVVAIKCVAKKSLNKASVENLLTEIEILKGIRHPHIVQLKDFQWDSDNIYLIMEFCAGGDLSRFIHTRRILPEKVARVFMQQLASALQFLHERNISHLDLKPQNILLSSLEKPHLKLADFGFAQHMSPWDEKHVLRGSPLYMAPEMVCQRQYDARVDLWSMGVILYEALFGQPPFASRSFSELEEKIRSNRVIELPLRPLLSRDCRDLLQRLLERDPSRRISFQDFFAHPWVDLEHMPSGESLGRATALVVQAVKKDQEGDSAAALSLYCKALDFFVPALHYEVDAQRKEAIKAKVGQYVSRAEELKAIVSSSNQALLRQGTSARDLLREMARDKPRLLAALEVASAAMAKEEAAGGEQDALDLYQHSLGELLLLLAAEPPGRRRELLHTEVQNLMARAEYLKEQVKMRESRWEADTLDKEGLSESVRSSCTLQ
UniProt P43403: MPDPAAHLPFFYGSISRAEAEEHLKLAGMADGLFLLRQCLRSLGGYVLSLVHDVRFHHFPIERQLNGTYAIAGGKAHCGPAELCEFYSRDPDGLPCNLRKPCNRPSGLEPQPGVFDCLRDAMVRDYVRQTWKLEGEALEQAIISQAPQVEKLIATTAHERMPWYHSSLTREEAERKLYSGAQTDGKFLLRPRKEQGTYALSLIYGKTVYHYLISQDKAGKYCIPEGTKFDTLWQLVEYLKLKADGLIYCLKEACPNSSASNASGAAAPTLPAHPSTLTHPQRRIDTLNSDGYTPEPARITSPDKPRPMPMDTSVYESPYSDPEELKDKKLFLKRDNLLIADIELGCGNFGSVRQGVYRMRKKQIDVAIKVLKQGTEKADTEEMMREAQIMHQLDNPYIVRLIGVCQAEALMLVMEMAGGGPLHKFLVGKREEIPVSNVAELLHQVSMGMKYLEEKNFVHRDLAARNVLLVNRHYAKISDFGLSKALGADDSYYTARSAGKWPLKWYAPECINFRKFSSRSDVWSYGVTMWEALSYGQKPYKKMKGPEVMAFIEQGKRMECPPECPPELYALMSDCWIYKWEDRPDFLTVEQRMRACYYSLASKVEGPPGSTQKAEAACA
UniProt P10398: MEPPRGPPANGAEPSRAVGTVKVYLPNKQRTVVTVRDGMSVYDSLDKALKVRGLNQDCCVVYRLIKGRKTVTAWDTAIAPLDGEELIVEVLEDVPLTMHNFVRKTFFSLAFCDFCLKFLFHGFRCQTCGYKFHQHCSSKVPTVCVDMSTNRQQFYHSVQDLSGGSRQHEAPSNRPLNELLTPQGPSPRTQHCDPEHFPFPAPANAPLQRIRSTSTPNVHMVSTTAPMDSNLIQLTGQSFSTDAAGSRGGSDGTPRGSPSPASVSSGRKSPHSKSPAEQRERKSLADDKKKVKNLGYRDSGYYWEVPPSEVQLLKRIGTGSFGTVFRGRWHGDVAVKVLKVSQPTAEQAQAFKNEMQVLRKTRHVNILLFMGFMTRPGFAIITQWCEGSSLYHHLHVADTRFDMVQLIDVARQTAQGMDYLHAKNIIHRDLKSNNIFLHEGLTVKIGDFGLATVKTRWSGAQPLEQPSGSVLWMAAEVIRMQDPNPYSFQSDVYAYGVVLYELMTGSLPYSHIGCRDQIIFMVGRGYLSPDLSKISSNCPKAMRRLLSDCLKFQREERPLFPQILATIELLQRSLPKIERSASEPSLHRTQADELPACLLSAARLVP
UniProt O14965: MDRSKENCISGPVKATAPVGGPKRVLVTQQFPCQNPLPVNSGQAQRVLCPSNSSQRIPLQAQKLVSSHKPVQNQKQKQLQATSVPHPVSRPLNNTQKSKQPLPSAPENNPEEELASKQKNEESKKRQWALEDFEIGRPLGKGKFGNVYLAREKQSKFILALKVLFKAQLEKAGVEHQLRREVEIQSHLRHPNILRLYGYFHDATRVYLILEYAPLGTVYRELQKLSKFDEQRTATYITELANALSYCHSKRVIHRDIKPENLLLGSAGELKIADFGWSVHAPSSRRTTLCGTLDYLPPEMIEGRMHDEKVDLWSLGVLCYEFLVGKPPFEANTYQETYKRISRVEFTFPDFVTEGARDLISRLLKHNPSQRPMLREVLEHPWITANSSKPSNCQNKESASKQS
UniProt Q96GD4, whole entry: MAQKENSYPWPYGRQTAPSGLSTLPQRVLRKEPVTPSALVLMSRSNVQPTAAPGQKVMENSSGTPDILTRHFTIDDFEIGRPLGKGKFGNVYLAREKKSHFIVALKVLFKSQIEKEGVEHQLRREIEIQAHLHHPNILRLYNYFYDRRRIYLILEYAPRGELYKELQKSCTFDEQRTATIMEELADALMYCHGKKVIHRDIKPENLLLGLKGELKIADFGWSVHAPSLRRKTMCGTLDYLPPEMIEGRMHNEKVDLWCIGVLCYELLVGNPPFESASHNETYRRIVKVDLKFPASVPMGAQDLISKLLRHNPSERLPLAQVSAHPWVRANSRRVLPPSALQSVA
UniProt Q9UQB9: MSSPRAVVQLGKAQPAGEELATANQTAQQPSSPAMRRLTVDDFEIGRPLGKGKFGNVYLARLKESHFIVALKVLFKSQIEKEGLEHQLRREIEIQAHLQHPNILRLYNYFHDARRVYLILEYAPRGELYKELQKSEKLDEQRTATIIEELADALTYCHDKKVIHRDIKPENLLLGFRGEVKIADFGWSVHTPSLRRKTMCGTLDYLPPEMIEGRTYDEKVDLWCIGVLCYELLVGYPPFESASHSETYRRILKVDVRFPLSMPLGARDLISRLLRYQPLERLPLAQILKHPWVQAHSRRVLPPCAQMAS
UniProt P51813: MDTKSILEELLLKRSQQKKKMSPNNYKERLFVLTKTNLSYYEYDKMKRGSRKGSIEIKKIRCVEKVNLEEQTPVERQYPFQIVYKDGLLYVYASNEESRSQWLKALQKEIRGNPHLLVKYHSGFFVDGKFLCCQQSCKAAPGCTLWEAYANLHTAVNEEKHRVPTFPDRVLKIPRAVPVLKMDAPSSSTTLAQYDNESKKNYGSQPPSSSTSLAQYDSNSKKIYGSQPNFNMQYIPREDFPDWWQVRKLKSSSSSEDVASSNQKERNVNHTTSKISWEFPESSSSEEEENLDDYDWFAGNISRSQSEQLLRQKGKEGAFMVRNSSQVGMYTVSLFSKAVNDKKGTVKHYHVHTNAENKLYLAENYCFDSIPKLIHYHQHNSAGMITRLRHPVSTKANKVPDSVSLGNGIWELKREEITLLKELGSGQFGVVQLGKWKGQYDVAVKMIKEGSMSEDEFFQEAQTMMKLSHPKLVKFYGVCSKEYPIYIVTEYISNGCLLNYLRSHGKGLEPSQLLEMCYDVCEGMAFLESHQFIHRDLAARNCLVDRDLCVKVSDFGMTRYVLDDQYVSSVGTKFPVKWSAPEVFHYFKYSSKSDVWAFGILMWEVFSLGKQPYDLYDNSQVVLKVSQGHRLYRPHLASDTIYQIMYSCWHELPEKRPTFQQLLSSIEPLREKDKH
UniProt P15056, whole entry, looked up: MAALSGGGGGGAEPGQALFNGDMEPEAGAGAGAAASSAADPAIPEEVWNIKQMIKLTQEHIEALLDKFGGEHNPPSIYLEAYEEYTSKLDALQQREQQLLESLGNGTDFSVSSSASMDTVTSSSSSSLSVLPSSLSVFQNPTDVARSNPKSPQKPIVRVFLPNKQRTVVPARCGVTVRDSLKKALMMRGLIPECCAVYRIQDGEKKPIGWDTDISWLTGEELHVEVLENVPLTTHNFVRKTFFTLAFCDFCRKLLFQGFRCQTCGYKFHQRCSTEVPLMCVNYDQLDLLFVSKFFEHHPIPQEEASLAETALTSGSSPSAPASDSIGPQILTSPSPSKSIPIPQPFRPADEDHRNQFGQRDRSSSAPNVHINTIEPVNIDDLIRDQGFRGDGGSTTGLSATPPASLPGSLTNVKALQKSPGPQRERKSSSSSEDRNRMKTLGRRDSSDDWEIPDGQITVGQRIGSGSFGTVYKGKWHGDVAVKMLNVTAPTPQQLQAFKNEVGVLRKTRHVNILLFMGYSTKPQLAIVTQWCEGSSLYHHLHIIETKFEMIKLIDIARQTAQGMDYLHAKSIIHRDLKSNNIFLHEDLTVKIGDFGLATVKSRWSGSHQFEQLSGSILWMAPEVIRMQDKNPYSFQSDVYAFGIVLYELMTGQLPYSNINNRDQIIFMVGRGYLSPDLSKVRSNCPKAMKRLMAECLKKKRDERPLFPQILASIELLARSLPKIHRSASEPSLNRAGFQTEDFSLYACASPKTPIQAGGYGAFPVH

Row | Compound | kinase-Nluc reporter destabilization hit call (STK38) | kinase-Nluc reporter destabilization hit call (SYK) | kinase-Nluc reporter destabilization hit call (TEC) | kinase-Nluc reporter destabilization hit call (TYK2) | kinase-Nluc reporter destabilization hit call (ULK3) | kinase-Nluc reporter destabilization hit call (YES1) | kinase-Nluc reporter destabilization hit call (ZAK) | kinase-Nluc reporter destabilization hit call (ZAP70) | number of time points (ABL1) | number of time points (AKT1) | number of time points (ALK) | number of time points (ARAF) | number of time points (AURKA) | number of time points (AURKB) | number of time points (AURKC) | number of time points (BLK) | number of time points (BMX) | number of time points (BRAF) | number of time points (BRAF_V600E) | number of time points (BTK)
1 | Cc1cc([N+](=O)[O-])c(NS(=O)(=O)c2cccc(C(=O)O)c2)cc1-c1cccnc1 [Alofanib] (10 µM) | inactive: 0 | inactive: 0 | inactive: 0 | inactive: 0 | inactive: 0 | inactive: 0 | inactive: 0 | inactive: 0 | 0 | 0 | 0 | 0 | 0 | 0 | 0 | 0 | 0 | 0 | 0 | 0
2 | O=c1[nH]nc(Sc2ncc([N+](=O)[O-])s2)n1-c1ccc2c(c1)OCCO2 (2.5 µM) | inactive: 0 | inactive: 0 | inactive: 0 | inactive: 0 | inactive: 0 | inactive: 0 | inactive: 0 | inactive: 0 | 0 | 0 | 0 | 0 | 0 | 0 | 0 | 0 | 0 | 0 | 0 | 0
3 | CCn1c2ccccc2c2cc(Nc3ccnc(NCCCN4CCOCC4)n3)ccc21 (2.5 µM) | inactive: 0 | inactive: 0 | inactive: 0 | inactive: 0 | inactive: 0 | inactive: 0 | inactive: 0 | inactive: 0 | 0 | 0 | 0 | 0 | 0 | 0 | 0 | 3 | 0 | 0 | 0 | 0
4 | C[C@@]12CCc3occc3[C@H]1CC[C@@]13C[C@@H](CC[C@H]12)[C@@](O)(CO)C3 [Cafestol] (10 µM) | inactive: 0 | inactive: 0 | inactive: 0 | inactive: 0 | inactive: 0 | inactive: 0 | inactive: 0 | inactive: 0 | 0 | 0 | 0 | 0 | 0 | 0 | 0 | 0 | 0 | 0 | 0 | 0
5 | NC(=O)c1nc(-c2c(F)cccc2Cl)oc1Nc1ccc(C(=O)N2CCOCC2)cc1 (10 µM) | inactive: 0 | inactive: 0 | inactive: 0 | inactive: 0 | inactive: 0 | inactive: 0 | inactive: 0 | inactive: 0 | 0 | 0 | 0 | 0 | 0 | 0 | 0 | 0 | 0 | 0 | 0 | 0
6 | Cc1cc(F)c(Nc2ncnc3cc(OCc4ccccc4)ccc23)cc1O (10 µM) | inactive: 0 | inactive: 0 | inactive: 0 | inactive: 0 | inactive: 0 | inactive: 0 | inactive: 0 | inactive: 0 | 0 | 0 | 0 | 0 | 0 | 0 | 0 | 0 | 0 | 0 | 0 | 0
7 | C[C@H](CC[C@@H](O)C(C)(C)O)[C@H]1CC[C@@]2(C)[C@@H]3CC=C4[C@@H](CC[C@H](O)C4(C)C)[C@]3(C)[C@H](O)C[C@]12C [Mogrol] (10 µM) | inactive: 0 | inactive: 0 | inactive: 0 | inactive: 0 | inactive: 0 | inactive: 0 | inactive: 0 | inactive: 0 | 0 | 0 | 0 | 0 | 0 | 0 | 0 | 0 | 0 | 0 | 0 | 0
8 | COc1cc(-c2cc(-c3cccc(O)c3)cnc2N)cc(OC)c1OC (2.5 µM) | inactive: 0 | inactive: 0 | inactive: 0 | inactive: 0 | inactive: 0 | inactive: 0 | inactive: 0 | inactive: 0 | 2 | 0 | 1 | 0 | 0 | 0 | 0 | 0 | 1 | 0 | 1 | 0
9 | CCOc1cc(C(=O)N2CCC(N3CCN(C)CC3)CC2)ccc1Nc1ncc2c(n1)N(S(C)(=O)=O)c1ccccc1C(=O)N2C (10 µM) | inactive: 0 | inactive: 0 | inactive: 0 | inactive: 0 | inactive: 0 | inactive: 0 | inactive: 0 | inactive: 0 | 0 | 0 | 0 | 0 | 0 | 0 | 0 | 0 | 0 | 0 | 0 | 0
10 | CCn1c(-c2nonc2N)nc2c(C#CCO)ncc(OCCCN)c21 [AKT Kinase Inhibitor] (10 µM) | inactive: 0 | inactive: 0 | inactive: 0 | inactive: 0 | inactive: 0 | inactive: 0 | inactive: 0 | inactive: 0 | 0 | 0 | 0 | 0 | 0 | 0 | 0 | 0 | 2 | 0 | 0 | 0
